These are yes or no findings as the source states them, for the method shown. Binding calls can cover weak binding; strength is not graded here. For part of these data: Binding seen in cells or lysates may run through a third protein.
How the values were obtained:
[1] = molecular target: Trypanosoma brucei RESC1 (residues 22-473, without mitochondrial targeting sequence) (Trypanosoma brucei) (UniProt Q57XL7); assay: mass photometry; Refeyn OneMP; RESC1-RESC2 at a final concentration of 100 nM; co-expressed, co-purified complex; both purified
[2] = molecular target: Trypanosoma brucei RESC1 (residues 22-473, without mitochondrial targeting sequence) (Trypanosoma brucei) (UniProt Q57XL7); assay: SEC-MALS; Superdex 200 Increase 10/300 GL; 20 mM HEPES pH 7.5, 50 mM NaCl, 2 mM MgCl2, 1 mM DTT; 2 mg/ml, 50 ul injected; co-expressed, co-purified complex; both purified
[3] = molecular target: Trypanosoma brucei RESC1 (residues 22-473, without mitochondrial targeting sequence) (Trypanosoma brucei) (UniProt Q57XL7); assay: cryo-EM structure; apo RESC1-RESC2 heterodimer, peak fractions of Superdex 200 Increase 3.2/300 in 20 mM HEPES pH 7.5, 50 mM NaCl, 2 mM MgCl2, 0.5 mM TCEP; 3.4 A map; a gRNA-bound map at 4.7 A was also obtained; both purified

Protein sequences, listed by entry. Tags and fused reporters are not part of them. Lines headed by an entry give the natural chain unless they say otherwise; changes in a name come on top.
UniProt Q586X1: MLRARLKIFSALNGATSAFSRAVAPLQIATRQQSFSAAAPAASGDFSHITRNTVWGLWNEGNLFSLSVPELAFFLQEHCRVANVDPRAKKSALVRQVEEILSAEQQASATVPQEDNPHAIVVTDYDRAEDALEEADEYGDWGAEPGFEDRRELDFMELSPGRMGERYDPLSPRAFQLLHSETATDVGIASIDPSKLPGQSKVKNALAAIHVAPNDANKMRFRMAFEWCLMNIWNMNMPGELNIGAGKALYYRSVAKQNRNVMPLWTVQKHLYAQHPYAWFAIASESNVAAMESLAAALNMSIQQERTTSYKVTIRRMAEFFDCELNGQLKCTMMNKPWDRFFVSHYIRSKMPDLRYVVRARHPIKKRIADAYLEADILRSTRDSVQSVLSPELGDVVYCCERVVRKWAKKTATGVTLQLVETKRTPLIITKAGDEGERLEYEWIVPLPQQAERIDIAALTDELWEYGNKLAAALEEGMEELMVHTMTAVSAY

Measured: binding

Trypanosoma brucei RESC2 (residues 33-492, without mitochondrial targeting sequence) (from UniProt Q586X1)
binds: all assays above

Source: paper PMC10201420, “Structural basis for guide RNA selection by the RESC1–RESC2 complex”
